# Source: PMC6085347, “Structural basis for reactivating the mutant TERT promoter by cooperative binding of p52 and ETS1” (Nature Communications, 2018)
# How the values were obtained:
# ETS1 296-441 (human) = biological target: T1, ETS1 296-441 (human) (UniProt P14921); test: ITC; details: no p52, weaker than with p52-DSD; ITC: 25 mM Tris-HCl pH 7.5, 200 mM NaCl, 3 mM TCEP, 8 °C; recombinant protein; residues 296-441; protein details: GST removed (PreScission, pGEX-6P-1)
# T1 sequence (looked up): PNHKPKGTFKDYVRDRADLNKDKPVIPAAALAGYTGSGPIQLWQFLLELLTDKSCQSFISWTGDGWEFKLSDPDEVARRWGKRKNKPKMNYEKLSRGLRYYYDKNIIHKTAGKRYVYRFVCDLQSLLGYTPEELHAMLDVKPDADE
# p52-RHD (human) = biological target: T2, p52-RHD (human) (UniProt Q00653); test: ITC; details: no ETS1, nearly negligible binding; ITC: 25 mM Tris-HCl pH 7.5, 200 mM NaCl, 3 mM TCEP, 8 °C; recombinant protein; residues 35-329; protein details: GST removed (PreScission, pGEX-6P-1)
# T2 sequence (looked up): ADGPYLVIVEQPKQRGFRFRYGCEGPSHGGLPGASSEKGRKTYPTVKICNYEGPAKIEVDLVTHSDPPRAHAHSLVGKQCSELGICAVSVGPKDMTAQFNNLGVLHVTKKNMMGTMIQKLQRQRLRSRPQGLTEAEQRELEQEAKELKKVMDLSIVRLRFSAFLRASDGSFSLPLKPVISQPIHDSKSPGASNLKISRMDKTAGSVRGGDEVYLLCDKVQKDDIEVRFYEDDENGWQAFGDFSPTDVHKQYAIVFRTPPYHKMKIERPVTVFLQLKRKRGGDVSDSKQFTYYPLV
Sequence,binding result (ETS1 296-441 (human)),binding result (p52-RHD (human))
CCCTTCCGGG (double strand) [10 bp -146C>T TERT promoter DNA],binds more weakly,–
GTCCCGACCCCTTCCGGGTCCCCGGC / CGCCGGGGACCCGGAAGGGGTCGGGA [25 bp -146C>T TERT promoter DNA],binds more weakly,no binding

# For part of these data: No signal at the amounts used counts as a negative. Where a protein sequence is shown, tags need not be part of it. For part of these data: Construct, isoform or probe ends are uncertain for at least one entry. For part of these data: A weaker result is weaker than the reference pair of the same experiment. For part of these data: At least one verdict rests on a figure or table, not on a statement of the authors.
